Measurements as given in PMC6668851.

Legend:
[1] = target: T1, human UBIAD1 (G186R) fused with a TAP tag at the C terminus (Hs-UBIAD1-G186R-TAP) (human) (UniProt Q9Y5Z9); experiment: affinity purification with mass spectrometry; tandem affinity purification from HEK-293 stable cells: lysis in 1% digitonin, PBS, 5 mM EDTA, 5 mM EGTA; rabbit IgG agarose, TEV release, anti-Flag M2 agarose, 3x Flag peptide elution; tandem mass spectrometry
T1 sequence: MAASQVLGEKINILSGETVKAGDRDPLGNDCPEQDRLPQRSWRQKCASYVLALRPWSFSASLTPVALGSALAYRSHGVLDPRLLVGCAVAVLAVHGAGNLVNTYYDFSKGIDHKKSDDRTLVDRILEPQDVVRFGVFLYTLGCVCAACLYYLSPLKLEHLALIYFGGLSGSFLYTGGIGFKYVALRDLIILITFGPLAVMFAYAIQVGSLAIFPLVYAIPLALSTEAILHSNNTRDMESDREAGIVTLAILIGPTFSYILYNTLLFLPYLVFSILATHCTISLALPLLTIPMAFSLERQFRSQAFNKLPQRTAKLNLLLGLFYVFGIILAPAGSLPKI

[2] = target: T2, human wild-type UBIAD1 fused with a TAP tag at the C terminus (Hs-UBIAD1-WT-TAP) (human) (UniProt Q9Y5Z9); experiment: as above
T2 sequence: T1 sequence with R186G

binding [1]: binds | binding [2]: binds
Substance: VCP/p97, endogenous in HEK-293 (from UniProt P55072 1-806)

Residue numbers refer to the chain shown, from its start. Results are given in words; binding and its absence hold for the method and conditions named. In cells and extracts the contact can be indirect. A yes stands for co-enrichment or nearness to the bait. Other partners may have been found. Tags and fused reporters may be left off the sequences shown.
